Measurements published in PMC11852578, “Enhanced Site-Specific Fluorescent Labeling of Membrane Proteins Using Native Nanodiscs” (Biomolecules, 2025).
No constants are given. Whether binding was seen depends on the method and setting. Some entries that bind do so weakly or less than the wild type. Tags and fused reporters may be left off the sequences shown.

Target: KvAP wild type, archaeal voltage-gated potassium channel from Aeropyrum pernix, in DM detergent micelles (Aeropyrum pernix) (UniProt Q9YDF8)
Assay: SDS-PAGE; peak fraction of SEC of KvAP in DM micelles; Coomassie-stained gel; both purified

B1: KvAP wild type, archaeal voltage-gated potassium channel from Aeropyrum pernix, in DM detergent micelles (natural protein)
chain: GGRVRNIGDVMEHPLVELGVSYAALLSVIVVVVEYTMQLSGEYLVRLYLVDLILVIILWADYAYRAYKSGDPAGYVKKTLYEIPALVPAGLLALIEGHLAGLGLFRLVRLLRFLRILLIISRGSKFLSAIADAADKIRFYHLFGAVMLTVLYGAFAIYIVEYPDPNSSIKSVFDALWWAVVTATTVGYGDVVPATPIGKVIGIAVMLTGISALTLLIGTVSNMFQKILVGEPEPSCSPAKLAEMVSSMSEEEFEEFVRTLKNLRRLENSMK
notes: voltage-gated potassium channel KvAP, Aeropyrum pernix; native cysteine printed as C260; Labelling with AF647 maleimide failed in detergent, so the protein was unlabelled; also called wild-type KvAP; source: E. coli C43, pET21a-derived vector, membranes solubilised in DM, purified (Ni-NTA, SEC)
binding: binds
